For one sequence, Kd results are on record in PMC11381335, “Unraveling the structure and function of a novel SegC protein interacting with the SegAB chromosome segregation complex in Archaea” (Nucleic Acids Research, 2024).

In this data set the target is T1, SegC (UniProt Q981B4).
T1 sequence (looked up): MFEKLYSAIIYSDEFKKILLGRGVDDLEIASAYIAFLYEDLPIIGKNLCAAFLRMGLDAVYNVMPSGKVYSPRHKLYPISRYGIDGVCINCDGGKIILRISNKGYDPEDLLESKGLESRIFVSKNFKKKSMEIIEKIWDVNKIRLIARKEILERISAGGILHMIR
As to the kind of experiment: fluorescence polarization. As to conditions: printed as ~10^-6 uM, evidently 10^-6 M, collective value for Figure 1A and B; FP: 20 mM Tris-HCl pH 7.5, 100 mM NaCl, 2 mM MgCl2, 5 nM Cy3-DNA, room temperature; recombinant protein; residues 1-165; protein details: C-terminal His6; label: 5' Cy3. For orientation: Polarisation of emitted light reports the rotation of a fluorescent probe.

Usually Kd stands for the free concentration of one partner at which half of the binding sites on the other are occupied at equilibrium, for simple one-to-one binding.

The exact form of at least one protein or probe is not confirmed. Protein sequences can lack the tags named with them.

On to “AGGGTGTTCCACGTGAAACAGGGA (double strand) [24-bp non-specific DNA (nsDNA; Figure 1 legend says 23-bp)]”, for which the Kd was determined as 1000 nM.
